Test results: PubChem BioAssay AID504444 (National Center for Advancing Translational Sciences (NCATS), 2011)
The campaign covered roughly 360,000 compounds. About 7,500 (2.1%) were called active. Inconclusive results, whose numbers are uncertain, are shown with a selection of clear calls. Calls follow the shape of the dose curve; as a rule, active = well fitted inhibition curve with a large enough effect; inconclusive = small, poorly fitted or top-dose-only effect, or effect the other way; inactive = flat fitted curve, though single readings scatter. Potencies beside an inconclusive call are fits to weak or partial responses and may not hold up.

test: Nrf2 qHTS screen for inhibitors; conditions: A549 ARE-Fluc reporter, luciferase luminescence, 18-24 h; series mostly up to 46 µM; also: nearly all actives have a fitted effect of over 60% in size
Procedure, shortened: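 A549 ARE_Fluc cells, 5000/well, 5% FBS OPTI-MEM; compounds in dose-response, 18-24 h at 37 °C/5% CO2; CellTiter-Fluor viability read (Ex 405/Em 525), then BugLite luciferase luminescence = Nrf2 activity.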
Potency is read from the fitted curve at half-maximal effect.

Question: With `CC(C)CC(C)c1cc(N)nc2nc3ccccc3n12` (centres undefined) as the molecule, how does the Potency read?
Answer: inconclusive: 16.4 µM [falling, single point]

Question: Which Potency does the source give for `COc1ccccc1NC(=O)CC(c1cc(OC)c(OC)c(OC)c1)N1Cc2ccccc2C1=O` (centres undefined) here?
Answer: inactive

Question: Which Potency does the source give for `CCCCCSc1nc2sc3c(c2c(=O)n1-c1ccc(OC)cc1)CCN(C(C)=O)C3` here?
Answer: inconclusive: 23.1 µM [falling, single point]

Question: Which Potency does the source give for `COc1ccccc1N(CC(=O)Nc1cc(S(=O)(=O)N(C)C)ccc1C)S(=O)(=O)c1cccs1` here?
Answer: inactive

Question: For `CCCc1nc2ccccc2c(C(=O)OCC(=O)Nc2ccc(S(=O)(=O)N3CCOCC3)cc2)c1CC`, which Potency is on record?
Answer: active: 23.1 µM

Question: With `Cn1ncc2c(Nc3ccc4ccccc4c3)ncnc21` as the molecule, how does the Potency read?
Answer: inconclusive: 1.46 µM [activator, full curve]

Question: For `CC(C)c1ccc(/C=N/NC(=O)c2nnn(-c3nonc3N)c2CSC2=NCCS2)cc1`, which Potency is on record?
Answer: inconclusive: 29.1 µM [falling, single point]

Question: Which Potency does the source give for `CCn1c(SC(C)C(=O)NCC2CCCO2)nc2scc(-c3ccccc3)c2c1=O` (centres undefined) here?
Answer: inconclusive: 16.4 µM [falling, single point]

Question: For `COC(=O)c1nccnc1N`, which Potency is on record?
Answer: inactive

Question: Which Potency does the source give for `CCn1cc2c(n1)-c1c(oc(C(=O)Nc3cccc(C(F)(F)F)c3)c1C)CC2` here?
Answer: inactive

Question: Which Potency does the source give for `C[n+]1cc[nH]c1SCC(=O)c1ccc(Cl)cc1` here?
Answer: inconclusive: 23.1 µM [activator, partial curve, poor fit]

Question: For `O=C(NC1CCCC1)c1cccc(S(=O)(=O)Nc2ccccc2F)c1`, which Potency is on record?
Answer: inconclusive: 8.2 µM [falling, partial curve]

Question: For `COc1ccc(C2=Nn3c(nnc3-c3ccccc3OC)SC2)cc1OCC1CC1`, which Potency is on record?
Answer: inconclusive: 7.31 µM [falling, partial curve]

Question: With `Cc1cc(=O)c2cc(C(=O)Nc3ccccc3C)ccc2[nH]1` as the molecule, how does the Potency read?
Answer: active: 20.6 µM

Question: For `COC(=O)c1cc2sc(Cl)cc2n1Cc1cc(C)ccc1C`, which Potency is on record?
Answer: inactive

Question: For `C/C(=N\Nc1ccc([N+](=O)[O-])cc1)c1ccc(N)cc1`, which Potency is on record?
Answer: inactive

Question: Which Potency does the source give for `COc1ccc(C=C2SC(=O)NC2=O)cc1OC` here?
Answer: inconclusive: 18.4 µM [activator, single point]

Question: Which Potency does the source give for `COc1cc([N+](=O)[O-])cc(/C=N/NC(=O)Cn2nc(C)cc2C)c1O` here?
Answer: inconclusive: 29.1 µM [falling, single point]

Question: Which Potency does the source give for `COC(=O)[C@H](Cc1ccccc1)NC(=O)c1cc(COc2c(F)cccc2F)on1` here?
Answer: inconclusive: 29.1 µM [activator, single point]

Question: Which Potency does the source give for `COc1ccc(Cn2ccc3nc(C)c(C(=O)NCc4cccc(OC)c4)cc3c2=O)cc1` here?
Answer: inactive

Question: Which Potency does the source give for `CCOC(=O)c1c[nH]c2ccc3ccccc3c2c1=O` here?
Answer: inconclusive: 13 µM [falling, partial curve, poor fit]

Question: For `CCC(=O)NNc1nc2c(C)cc(C)cc2s1`, which Potency is on record?
Answer: inconclusive: 13 µM [activator, partial curve, poor fit]

Question: With `Nc1ccc(N2CCN(CCCCN3C(=O)C4CCCN4C3=O)CC2)cc1` (centres undefined) as the molecule, how does the Potency read?
Answer: inactive

Question: With `CC(C)Oc1ccc(C(=O)Nc2nnc(SCC(=O)N3CCOCC3)s2)cc1` as the molecule, how does the Potency read?
Answer: active: 5.17 µM

Question: For `CCOc1ncccc1C(=O)Nc1cc(S(=O)(=O)N(CC)CC)ccc1N1CCOCC1`, which Potency is on record?
Answer: inconclusive: 32.6 µM [falling, single point]

Question: With `COc1ccc(NC(=O)n2ncc3c(C)cccc32)cc1` as the molecule, how does the Potency read?
Answer: inconclusive: 0.92 µM [activator, full curve, poor fit]

Question: For `CNC(=S)N/N=C(\C)c1ccc(Cl)c(Cl)c1`, which Potency is on record?
Answer: inactive

Question: For `CC(C)c1nc(SCC(=O)Nc2ccc3c(c2)OCCO3)c2c(=O)n(C)c(=O)n(C)c2n1`, which Potency is on record?
Answer: inconclusive: 13 µM [falling, partial curve, poor fit]

Question: With `C=CCn1c(SCC(=O)Nc2cccc(S(N)(=O)=O)c2)nnc1C1CCCCC1` as the molecule, how does the Potency read?
Answer: inactive

Question: For `OCCCn1c(C2CCCN2c2nc(-c3ccc(Cl)cc3)cs2)nc2cc(Cl)c(N3CCCCC3)cc21` (centres undefined), which Potency is on record?
Answer: inconclusive: 16.4 µM [falling, single point]

Question: For `CC(=O)c1ccc(NC(=O)CCOc2ccccc2)cc1`, which Potency is on record?
Answer: inconclusive: 7.31 µM [activator, partial curve]

Question: Which Potency does the source give for `Cc1cccc2[nH]c3c(N4CCN(C(=O)c5ccco5)CC4)ncnc3c12` here?
Answer: inconclusive: 29.1 µM [falling, partial curve, poor fit]

Question: For `CC(=O)n1cc(N(C(=O)CCl)c2ccccc2)c2ccccc21`, which Potency is on record?
Answer: inconclusive: 23.1 µM [falling, single point]

Question: With `COc1ccccc1N1CCN(C(=O)c2ccc(Cl)c(S(=O)(=O)NCc3ccco3)c2)CC1` as the molecule, how does the Potency read?
Answer: inconclusive: 4.47 µM [falling, full curve, poor fit]

Question: For `Cc1ccc(CNC(=O)CC(C)S(=O)(=O)c2ccc3c(c2)NC(=O)CS3)o1` (centres undefined), which Potency is on record?
Answer: inconclusive: 29.1 µM [falling, single point]

Question: For `CCOC(=O)c1c(C)[nH]c(C)c1S(=O)(=O)NCC(=O)N1CCN(c2ccccc2OC)CC1`, which Potency is on record?
Answer: inactive

Question: With `O=C(O)c1cccc(N/N=C/c2cccs2)c1` as the molecule, how does the Potency read?
Answer: inconclusive: 2.91 µM [activator, full curve]

Question: With `Cc1ccc(-c2nn3c(C)nnc3s2)cc1NC(=O)c1ccc(-c2cccc(Cl)c2)o1` as the molecule, how does the Potency read?
Answer: active: 14.6 µM

Question: Which Potency does the source give for `COc1cccc(/C(O)=C/c2nc3ccc(C(=O)NCCc4ccc(Cl)cc4)cc3[nH]c2=O)c1` here?
Answer: inconclusive: 20.6 µM [falling, single point]

Question: Which Potency does the source give for `O=C(Nc1ccccc1)N1N=CCC1c1ccccc1` (centres undefined) here?
Answer: inactive

Question: With `CN(Cc1ccccc1)C(=O)CCC(=O)N(C)Cc1ccccc1` as the molecule, how does the Potency read?
Answer: inconclusive: 8.2 µM [activator, partial curve]

Question: For `CCOC(=O)Cc1csc(NC(=O)/C=C/c2ccc(Cl)cc2)n1`, which Potency is on record?
Answer: inconclusive: 20.6 µM [falling, partial curve, poor fit]

Question: For `Cc1ccc(N(C)C(=O)c2cc(S(=O)(=O)N3CCOCC3)cn2C)cc1`, which Potency is on record?
Answer: inconclusive: 25.9 µM [falling, single point]

Question: With `CCOc1ccc(NC(=O)CN(C)C(=O)c2ccncc2)cc1OCC` as the molecule, how does the Potency read?
Answer: inactive

Question: With `CS(=O)(=O)N1N=C(c2cccs2)CC1c1ccccc1O` (centres undefined) as the molecule, how does the Potency read?
Answer: inconclusive: 11.6 µM [falling, partial curve, poor fit]

Question: With `COc1ccc(Nc2nccc(-c3cccc(N)c3)n2)cc1` as the molecule, how does the Potency read?
Answer: inconclusive: 2.31 µM [activator, partial curve]

Question: Which Potency does the source give for `CCCc1ccc2oc(C(=O)N3CCN(c4cnccn4)CC3)c(C)c2c1` here?
Answer: inconclusive: 29.1 µM [falling, single point]

Question: With `O=C(NCc1nc2ccccc2[nH]1)C1=C[C@@H](c2ccc(C(F)(F)F)cc2)C[C@@H](OCCCCO)O1` as the molecule, how does the Potency read?
Answer: inconclusive: 29.1 µM [falling, single point]

Question: With `Oc1ccccc1C(Nc1nccs1)c1ccc2cccnc2c1O` (centres undefined) as the molecule, how does the Potency read?
Answer: active: 5.8 µM

Question: For `COc1ccccc1-c1noc(CCCC(=O)Nc2cc(C)ccc2C)n1`, which Potency is on record?
Answer: inactive

Question: Which Potency does the source give for `CCOc1ccc(NC(=S)Nc2cc(C)[nH]n2)cc1` here?
Answer: inactive

Question: With `Cc1ccc(/C=C(\C#N)c2nn(-c3ccccc3)c(N)c2C#N)cc1` as the molecule, how does the Potency read?
Answer: inconclusive: 25.9 µM [falling, partial curve, poor fit]

Question: Which Potency does the source give for `CC(C)c1ccc2c(c1)C(c1ccc(N3CCOCC3)cc1)=NNC(c1cccs1)=N2` here?
Answer: inactive

Question: For `CN1N=C(C(=O)NC2CCCc3c2cnn3-c2ccc(F)cc2F)CCC1=O` (centres undefined), which Potency is on record?
Answer: inconclusive: 23.1 µM [falling, partial curve, poor fit]

Question: With `CCOC(=O)N1CCC(NC(=O)c2cc3sccc3n2CC)CC1` as the molecule, how does the Potency read?
Answer: inconclusive: 18.4 µM [falling, partial curve, poor fit]

Question: With `Cn1ncc2c(Nc3cc(Cl)cc(Cl)c3)ncnc21` as the molecule, how does the Potency read?
Answer: inconclusive: 16.4 µM [activator, partial curve, poor fit]

Question: Which Potency does the source give for `CCCOc1ccc(OCCOCCN2CCc3ccccc3C2)cc1` here?
Answer: inconclusive: 2.91 µM [activator, full curve]

Question: For `COc1ccc(Nc2oc(/C=C/c3cccc(OC)c3)nc2C#N)cc1`, which Potency is on record?
Answer: inconclusive: 2.31 µM [activator, full curve, poor fit]

Question: With `COCCC(=O)N1CCC(Oc2ccc(C(=O)NC3Cc4ccccc4C3)cc2)CC1` as the molecule, how does the Potency read?
Answer: inconclusive: 18.4 µM [falling, single point]

Question: Which Potency does the source give for `CC(CNC(=O)c1ccccc1Cl)NC(=O)c1ccccc1Cl` (centres undefined) here?
Answer: inconclusive: 20.6 µM [falling, partial curve, poor fit]

Question: With `O=C(Cn1ncc2ccsc2c1=O)N1CCN(c2ccccc2F)CC1` as the molecule, how does the Potency read?
Answer: inactive

Question: For `CC(C)c1ccccc1NC(=O)Nc1ccc(F)cc1F`, which Potency is on record?
Answer: inconclusive: 20.6 µM [falling, partial curve, poor fit]

Question: Which Potency does the source give for `CN(CCOc1ccc(-c2ccn(S(=O)(=O)c3ccc(Cl)cc3)n2)cc1)c1ccccn1` here?
Answer: inconclusive: 23.1 µM [falling, single point]

Question: Which Potency does the source give for `Cc1ccc(-n2ncc3c(=O)n(Cc4ccccn4)cnc32)cc1C` here?
Answer: inconclusive: 23.1 µM [activator, single point]

Question: Which Potency does the source give for `COc1ccc(OC)c(S(=O)(=O)N2CCC(C(=O)Nc3cccc(C)c3)CC2)c1` here?
Answer: inconclusive: 20.6 µM [falling, partial curve]

Question: Which Potency does the source give for `CCOC(=O)c1c(C)[nH]c(C(=O)NCc2ccccn2)c1C` here?
Answer: inconclusive: 1.64 µM [activator, partial curve, poor fit]

Question: For `CCNC(=S)/N=C(/Nc1ccc(OC)cc1)Nc1nc(C)cc(C)n1`, which Potency is on record?
Answer: inactive

Question: Which Potency does the source give for `COc1ccc(-c2cc(C(=O)N3CCCC3)no2)cc1` here?
Answer: inconclusive: 3.26 µM [activator, single point]

Question: Which Potency does the source give for `CC[n+]1c(/C=C2/C=C(C)CC(C)C2)sc2ccccc21` (centres undefined) here?
Answer: inconclusive: 23.1 µM [falling, single point]
